PubChem BioAssay AID1224826, NIAID | 2016
Aim: 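Knock-downs that raise or lower Tnf reporter signal after endotoxin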 (primary screen). Cell system: RAW264.7 G9 macrophages from mouse bearing reporters for p65 (GFP) and the Tnf promoter (mCherry). Reagent: siRNA pool against mouse genes, 100 nM. Duration: 16 h of LPS stimulation, after 2 days of siRNA transfection. Conditions: bacterial lipopolysaccharide (Salmonella minnesota R595), 10 ng/ml. Read-out: 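Imaged Tnf reporter mCherry in nuclei, minus background, normalised per plate to the median and expressed as robust z-scores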. Scale: Tnf reporter robust z-score: higher = stronger Tnf promoter reporter signal after LPS; Tnf reporter intensity: higher = stronger Tnf promoter reporter signal. Active means: 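a well counts as active at a score of -1.3 or below (Tlr4 knock-down control median) or above 3 (raised signal); controls and wells holding fewer than 50 cells are excluded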. Meaning of the calls: active = Tnf reporter clearly lowered or raised; inactive = no clear change in Tnf reporter.
The deposit covers about 17,000 reagents; shown is an unselected part. Of all reagents, about 1,110 (6.6%) got an active call. 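Active means lowered or raised reporter signal; replicate intensities are raw and not normalised per plate.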 Reagent sequences are not shown.

| gene knocked down | Tnf reporter robust z-score | fewer than 50 cells in well | Tnf reporter intensity, replicate 1 | Tnf reporter intensity, replicate 2 | Outcome |
| --- | --- | --- | --- | --- | --- |
| Grb7 | -0.96 | enough cells in well | 186 | 147 | inactive |
| Arf2 | -1.08 | enough cells in well | 92.4 | 121 | inactive |
| Tas2r119 | 0.06 | enough cells in well | 310 | 69.6 | inactive |
| Or9r3 | -1.5 | enough cells in well | 30.7 | 55 | active |
| Ppic | 0 | enough cells in well | 205 | 125 | inactive |
| Pcmt1 | -0.7 | enough cells in well | 116 | 54.9 | inactive |
| Rps16 | -0.73 | enough cells in well | 260 | 137 | inactive |
| 1110059E24Rik | 0.32 | enough cells in well | 237 | 100 | inactive |
| Gp1ba | 0.26 | enough cells in well | 234 | 226 | inactive |
| Il3 | -0.94 | enough cells in well | 136 | 87.1 | inactive |
| Auh | -0.83 | enough cells in well | 100 | 112 | inactive |
| Uqcrb | -0.77 | enough cells in well | 90.7 | 63.6 | inactive |
| Umod | – | fewer than 50 cells per well; well left out of calls | 87.9 | 53.6 | inactive |
| Or5g25 | 0.83 | enough cells in well | 223 | 207 | inactive |
| Top2b | 0.06 | enough cells in well | 242 | 134 | inactive |
| Anxa11 | -0.06 | enough cells in well | 156 | 175 | inactive |
| Gpr61 | -0.36 | enough cells in well | 191 | 257 | inactive |
| Nlrp4f | 0.63 | enough cells in well | 132 | 204 | inactive |
| Ccdc117 | 0.68 | enough cells in well | 190 | 263 | inactive |
| Siglec1 | – | fewer than 50 cells per well; well left out of calls | 140 | 37 | inactive |
| Crtac1 | -0.12 | enough cells in well | 127 | 221 | inactive |
| Hdac7 | -1.42 | enough cells in well | 142 | 81.9 | active |
| Ugt2b35 | -0.39 | enough cells in well | 132 | 167 | inactive |
| Gfm1 | 0.29 | enough cells in well | 227 | 180 | inactive |
| Mtrex | – | fewer than 50 cells per well; well left out of calls | 239 | 86.2 | inactive |
| Man2b2 | -1.09 | enough cells in well | 166 | 131 | inactive |
| Camp | -0.13 | enough cells in well | 141 | 151 | inactive |
| Zfp870 | -1.58 | enough cells in well | 99.3 | 59.3 | active |
| Nhlrc1 | -0.55 | enough cells in well | 184 | 86.9 | inactive |
| Recql5 | 0.71 | enough cells in well | 457 | 205 | inactive |
| Mef2c | -1.21 | enough cells in well | 144 | 132 | inactive |
| Krt10 | 0.21 | enough cells in well | 233 | 178 | inactive |
| Cenph | 0 | enough cells in well | 270 | 185 | inactive |
| Trim39 | -0.86 | enough cells in well | 85.4 | 62.7 | inactive |
| Romo1 | – | fewer than 50 cells per well; well left out of calls | 232 | 84.7 | inactive |
| Ap1b1 | -0.36 | enough cells in well | 183 | 163 | inactive |
| Mrpl46 | -0.06 | enough cells in well | 151 | 143 | inactive |
| Idh3g | -1.16 | enough cells in well | 126 | 74.1 | inactive |
| Actn3 | 0.78 | enough cells in well | 232 | 192 | inactive |
| Serpina9 | 0.42 | enough cells in well | 122 | 108 | inactive |

Limited to “Tnf reporter intensity, replicate 1” (2 entries from above):
Grb7: 186
Arf2: 92.4
